No constants are given. Whether binding was seen depends on the method and setting. Some results given as binding are weak or reduced against the parent protein; the word gives no strength. Tags and fused reporters may be left off the sequences shown.
How the values were obtained:
[1] = molecular target: T1, human BTNL2-His重组蛋白 (ACROBiosystems, BT2-H81Q5) (human) (UniProt Q9UIR0); assay: ELISA (legend of Figure 1)
T1 sequence (looked up): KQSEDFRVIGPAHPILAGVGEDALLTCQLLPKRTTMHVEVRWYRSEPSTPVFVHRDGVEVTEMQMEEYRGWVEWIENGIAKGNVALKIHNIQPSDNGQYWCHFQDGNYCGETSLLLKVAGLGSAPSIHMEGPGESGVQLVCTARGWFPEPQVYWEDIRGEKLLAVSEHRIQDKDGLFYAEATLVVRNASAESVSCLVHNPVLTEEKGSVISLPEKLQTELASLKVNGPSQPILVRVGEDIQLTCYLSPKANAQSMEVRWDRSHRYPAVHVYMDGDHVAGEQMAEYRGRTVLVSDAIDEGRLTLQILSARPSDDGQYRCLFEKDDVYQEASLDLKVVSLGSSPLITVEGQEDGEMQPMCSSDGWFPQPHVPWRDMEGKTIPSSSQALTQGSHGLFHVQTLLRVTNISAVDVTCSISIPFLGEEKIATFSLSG

[2] = molecular target: T1, human BTNL2-His重组蛋白 (ACROBiosystems, BT2-H81Q5) (human); assay: ELISA, BTNL2-His coated at 2 μg/mL, antibody from 10 μg/mL in 4-fold dilutions

binding [1]: binds | binding [2]: binds
B1: 小鼠抗人BTNL2单克隆抗体 H2T-3-1-28 (antibody, V domains shown)
VH: EVQLQQSGAELVKPGASVKLSCTASGFNIKDTYMHWVKQRPEQGLEWIGRIDPANGNTKYDPKFQGKATITADTSSNTVYLQLSSLTSEDTAVYYCPRYYGNYLYAMDYWGQGTSVTVSS
VL: DIVMTQSQKVMSTSVGDRVSITCKASQNVRSAVAWFQQKPGQSPKVLIYLASNRHTGVPDRFTGSGSGTDFTLTISNVQSEDLADYFCLQHWNYPLTFGAGTKLELK

— patent CN119219781A
